Experimental data reported in publication PMC11000389.
For at least one entry, the source does not settle the construct or the ends of the probe. A negative result means that nothing was seen under these conditions. Tags and fusion partners may be left off the protein sequences shown.

molecular target: T1, MtrA (UniProt Q82DB9); test: EMSA; details: 3 or 6 ug MtrA, 50 ng probe; EMSA kit buffer (composition, pH, temperature not given), 20 uL, 50 ng Cy5 probe, 3-6 ug MtrA, 6% native PAGE; recombinant protein; label: Cy5 5' end; probe letters rebuilt from the primers and the genome
T1 sequence (looked up, limits assumed): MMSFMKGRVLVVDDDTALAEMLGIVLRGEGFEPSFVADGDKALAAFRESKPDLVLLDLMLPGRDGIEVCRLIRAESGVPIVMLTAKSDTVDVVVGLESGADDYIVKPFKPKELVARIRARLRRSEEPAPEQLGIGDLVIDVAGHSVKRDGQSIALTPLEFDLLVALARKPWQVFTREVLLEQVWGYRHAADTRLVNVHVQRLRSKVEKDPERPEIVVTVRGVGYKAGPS

Sequence | binding result
AGCCAGTGGCGATAAGAAGGGCGCTCGAAGGCCCGTCTGTTCGGACGGCGGCCGGGTTCGCCACGCGGCTGCGAGAGCTGATGCTGGTGCAGTGGCCGTTCGGCGGCGAGCGGTATCTGGCCGCCGCGGCCCGGGTGGTCGCCCAACCCGTGGGCAGTGCACTGATGTTGTCGCTGACCGCTCTGCTCTGCGCATATCTGCTCACGACCCTGCGTAGCAGGGTCCGATGACGACCGTCCGAGGGCTTCCGGTCCTGTCGTGAGCGCAACTTCCCGGAGAACGCCCATTTCTTTCCGATAAGGCGTCAATTGCGACGGGGTGAGCGATCACCCTTTCGTGTGCTTTTCACCAAAGACCTCAAGGGCGTTGGAAGCGACGCCGACAAAGGATCCGTGAGTACCCTTGCGCACACCATGATGACCGCCGCCCGCTCCGCCGACTCCGGCCTGACCGGACCGGGCGAACTCGACCGCTACCCCTACGCCGAGGCCTCTGCCGCCGACCGCGTCGGCATTCCCGCGCTTATCGCCACTGGCT (double strand) [whiH promoter] | no binding
AGCCAGTGGCGATAAGAGACCAGTCGCGTCGGAGCCTCCGCGGCCGGATGGAAACGCCGGAGCCAGTTGTCGCTCGTCTGAACACTGGTCATCGCGCTGCAGCCTCTGCCTTTCGGAGTGGATCAACTGGATCAACTTGGTGTCCACGAAGCTGTCAGCCGGACCCGCACCGGACAACCCCCATCAGCCCCTATGCCCGGCGACGGCAGCCCGTGTCCCACCATCGAGCGGCTGCCTGTATCGCATGATCGCCGGTAGCCTCCTGGGCCTCAGGTCAGGGTCCTGCTCGAGCGCCCGCCGCTCACGCACGAGGGAGTGTCGACTGATCGATGATGCCTACGACGGCCGAGCCCGCACCCGTCCAGTCCGACAGCAACAGCAGTGCTCCCCTCCACACCGAACTGGGCAGGACCCGGCTGAGGATCAGCCGACTGGCGCTCGGAACGGTCCTTATCGCCACTGGCT (double strand) [aveBVIII upstream region (PaveBVIII)] | binds
AGCCAGTGGCGATAAGCATTCCGCCCTCGGCGACGAGCAGTTTCACCGTGCCGGCCGCGCATTCGGTAAGGGCCAGCCGCAGCGCGCGGAACTGTGTTTCCCGGTCGACGAGCGTGAGTTCTTCTGGTTTCCGAGGGGGGTGCAGACAGGAAACTCCCTGCATGATGTTCTTATTTCTCCTTTTTCCAAGAAAGCGTGTCTCGGGGATTTCGATTGCTTGAGCAAAAGCGGTCGCGGCCGTGCGGGCTGGGTTGATCAGCATCAGAGGTGATGGTCAGTGTTATGAATTTGCCCTGGTGGGCGGGGTAGTGTCAAGGTCGCTGACTTTGATGATTAACTGATGATCGTGGGATTCTGAGGTGGTGTTCGCGAGGGTGAAGGAGTTCCTTCCTGGAGACATCCGTGCCCCGGATGGCGGTCCACAATTCACGAGTGGGATGCGCAGTGGGTCGCGTGCTGCAACACCGAATGGAATACCGGGTGACCGGTATGTACTTATCGCCACTGGCT (double strand) [aveR upstream region (PaveR)] | binds
AGCCAGTGGCGATAAGCTACTCCTTGATGTTCCAGGGCATCGCGAAGCCGAACTTCCAGACGTAGACGGCCATAAGAGCGGCGATGATCACGAGCCCGACGGTGGTGAGGATGATGTTGCGGCGCCGCACCCTGGGGTCGAGCGCACGCTGGGTCGCCTCGGTGACCTTGCGCTTCGTCCAGCGGAGCACCAGCTGGGCCCAGACGAACTCCGTCGCCCAGATCGCCATGCCTCCGAAGATCACCAGCCAGCCCGGACCGGGCAGCGGAAGCATGATCACGCCCGCGACGACGACCGCGAGCCCCACGATGAAAACGCCCACCTGCCAGCTCAGGTGCAGCGCGCGACGCGCCTTGATGAATTTCGGCGCCCTCGAGCCGAGCCCCCGCTCGGCGTTCGTTTCGTCAGCGGCCACGGCGACCTCGCCCGGCTCGTCACTCCCCGTATTCATACAACAAACCCTACCGGAGGGAAACCAGTCACCGGAATGGTCGTACCTCGCGAACGATCTCTCGGCCGGATGAGGTACCTAAAGACACGCAAAACACTCAGAGGGGTTTACAACGGCACCGTAGGTGGCATGTCGATTTCGCCGACGTGCGAATCCCCGAGCGCACACTGAGCGAAAGGCCCTGGCGCTTATGAACACCACGGTCAGCTGCGAGCTGCACCTGCGCCTCGTTGTGTCGAGCGAGTCCCTTATCGCCACTGGCT (double strand) [ssgC promoter] | binds
AGCCAGTGGCGATAAGGGGAAAGAAGGACTCGGGGTCGGTCTGGGCGCACAGTGCGCGCTCCTGCCAGCCGAGTTCCTCGTCCGCGTCGTCGACCAGCAGTTGCTGCACCAGCTCGGTCATGTGCGCCCCTCGTCTGTCTTCGCGTCCCCGTGATGCTGTCGTTACCGATTTCGGCTGAACGACACGAGTGAAATTACAAGTGTGCCGATCCGCGCCAGTCAAGCCGAGATCTGCTATTGAGCCCCTTATTCACTCTGCGGAACCAAGGCTATGCGGAAAGTGTTCAAATCGGGATAAACGCCTACAGCCATCGGTGACCACAAGAGCCCAGGTCGGACCTCCAGCCCTCCACAGGGAAGGACGCCCGTATGTTCGATCTCGTTCCGACGCGAACATCGAAGCGAACCGGATCACATTCGGATCACGGAGCCGCCACGAGGTTTGCGCGCCCGGTTGTGCGCCATGTGTCCCCGGCGGCTCCTGAACAAACCTTTCGCCAGCGAGATGAACCGGATGAGGTGAAACACCTCTCACATACCGGACACCAAGTTGACAGCGGAAGTGTGAACCGATGTCCTTGTGGGCATGCTCGCGAACTTGGCACTCACCTCGACCCGCACCGCCGGGTCCCACGGTGCTGCCCGCGCTCGCTGTAGCTGTTGCTGTTCCAGCTGTTGAGCCGTACCGCGCTCCGGCTGCCTCGCCGCCACTGAGGCGAATGACCGCCCCCACCCGGGCACCCCTCCCCGTCCGCAACCCGGACGGTCCTGGTCCGCGACACCCCAGCACCCCCACGCCGAGGAACCACCGCACCCCTTATCGCCACTGGCT (double strand) [whiB promoter] | binds
GTGGCGATAAGGTGACGTCGCCCCGCCTGGGTAACGACACGCCATCCCCACAATCGCGATCGGCTCCTGCTCACGCTCGACCACCTCGTACAGGCGACGGCGAGTGCGGTCCAGGTCCGCAGTGACGCGCTTGAGGTATTCCAGGAGCTTCGCTTCATTCGCCAATTGCATTCACGTCCTAGCAGGGCCCAGCGGATACGGGCGGAGTGGCAGGCGTCCGGTTCAGGACAGGCCGAGGTCGTTGTCAATGAATTTGAAAATCTCAGCCTCTGTTGCCGATGTGAACTTCTCGTCGTCATCAGCGCTTTCGGCTGTCGGATGCTGGGGTGCGTTCCACCTCAACATGAGTGACTTCTTATCGCCACTGGCT (double strand) [aveA1-aveA2 intergenic region] | binds
